PMC12464895
Results are given in words; binding and its absence hold for the method and conditions named. In cells and extracts the contact can be indirect. Some results given as binding are weak or reduced against the parent protein; the word gives no strength. For part of these data: Sequences can lack the tags named with a protein. Each block holds one binder with its values, some of them ahead of it.

By UniProt entry, the sequences of proteins in these tests, tags left out.
UniProt Q38HM4: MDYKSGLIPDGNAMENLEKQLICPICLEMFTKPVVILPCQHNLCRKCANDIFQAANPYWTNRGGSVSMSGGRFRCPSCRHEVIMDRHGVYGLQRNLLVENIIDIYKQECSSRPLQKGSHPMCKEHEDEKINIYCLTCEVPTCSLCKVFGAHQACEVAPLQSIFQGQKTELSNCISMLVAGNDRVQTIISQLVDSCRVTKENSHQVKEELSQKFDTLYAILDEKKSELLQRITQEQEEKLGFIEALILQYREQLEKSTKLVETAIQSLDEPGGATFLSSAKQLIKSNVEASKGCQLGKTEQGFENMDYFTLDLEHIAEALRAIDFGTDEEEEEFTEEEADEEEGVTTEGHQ
UniProt Q969Q1: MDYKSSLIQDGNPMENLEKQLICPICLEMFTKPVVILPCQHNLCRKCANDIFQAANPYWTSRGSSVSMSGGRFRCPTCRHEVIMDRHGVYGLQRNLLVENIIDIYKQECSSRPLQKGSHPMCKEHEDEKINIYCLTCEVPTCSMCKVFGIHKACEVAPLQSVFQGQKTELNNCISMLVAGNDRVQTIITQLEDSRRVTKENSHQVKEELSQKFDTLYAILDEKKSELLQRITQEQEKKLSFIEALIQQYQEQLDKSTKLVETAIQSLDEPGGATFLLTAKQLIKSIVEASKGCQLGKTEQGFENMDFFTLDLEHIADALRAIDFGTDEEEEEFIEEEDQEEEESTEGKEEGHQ

Experiments:
[1] = target: GFP-MuRF1 knock-in (endogenous MuRF1 with an N-terminal GFP tag) in C2C12 myotubes (mouse (endogenous in C2C12)) (UniProt Q38HM4); assay: co-IP; GFP pulldown with GFP-Trap agarose beads, or beads bound with IgG as a control, from total lysates (1 mg) of GFP-MuRF1 knock-in C2C12 myotubes; overnight at 4°C in sucrose lysis buffer (1% Triton X-100); immunoblot for TRIM72
[2] = target: GFP-MuRF1, transiently expressed in HEK293 cells (human) (UniProt Q969Q1); assay: co-IP; GFP pulldown with GFP-Trap agarose beads from total lysates (0.5 mg) of HEK293 cells co-transfected for 48 h with FLAG-TRIM72 and GFP-MuRF1 or GFP-empty; immunoblot with Flag antibody; one experiment
[3] = target: GFP-MuRF1 (human MuRF1 fused with a GFP tag at the N-terminus), stably expressed in L6 myotubes (human) (UniProt Q969Q1); assay: co-IP; GFP pulldown with GFP-Trap agarose beads from total lysates (1 mg) of L6 myotubes stably expressing GFP-MuRF1 or GFP-empty; overnight at 4°C in sucrose lysis buffer (1% Triton X-100); immunoblot for TRIM72

binding [1]: binds
B1: TRIM72 (tripartite motif-containing protein 72), endogenous in C2C12 myotubes (protein, UniProt Q1XH17 1-477)
chain: MSAAPGLLRQELSCPLCLQLFDAPVTAECGHSFCRACLIRVAGEPAADGTVACPCCQAPTRPQALSTNLQLSRLVEGLAQVPQGHCEEHLDPLSIYCEQDRTLVCGVCASLGSHRGHRLLPAAEAQARLKTQLPQQKMQLQEACMRKEKTVAVLEHQLVEVEETVRQFRGAVGEQLGKMRMFLAALESSLDREAERVRGDAGVALRRELSSLNSYLEQLRQMEKVLEEVADKPQTEFLMKFCLVTSRLQKILSESPPPARLDIQLPVISDDFKFQVWKKMFRALMPALEELTFDPSSAHPSLVVSSSGRRVECSDQKAPPAGEDTRQFDKAVAVVAQQLLSQGEHYWEVEVGDKPRWALGVMAADASRRGRLHAVPSQGLWLLGLRDGKILEAHVEAKEPRALRTPERPPARIGLYLSFADGVLAFYDASNPDVLTPIFSFHERLPGPVYPIFDVCWHDKGKNAQPLLLVGPEQEQA

binding [2]: binds
B2: FLAG-TRIM72, transiently expressed in HEK293 cells (protein, UniProt Q6ZMU5 1-477)
chain: MSAAPGLLHQELSCPLCLQLFDAPVTAECGHSFCRACLGRVAGEPAADGTVLCPCCQAPTRPQALSTNLQLARLVEGLAQVPQGHCEEHLDPLSIYCEQDRALVCGVCASLGSHRGHRLLPAAEAHARLKTQLPQQKLQLQEACMRKEKSVAVLEHQLVEVEETVRQFRGAVGEQLGKMRVFLAALEGSLDREAERVRGEAGVALRRELGSLNSYLEQLRQMEKVLEEVADKPQTEFLMKYCLVTSRLQKILAESPPPARLDIQLPIISDDFKFQVWRKMFRALMPALEELTFDPSSAHPSLVVSSSGRRVECSEQKAPPAGEDPRQFDKAVAVVAHQQLSEGEHYWEVDVGDKPRWALGVIAAEAPRRGRLHAVPSQGLWLLGLREGKILEAHVEAKEPRALRSPERRPTRIGLYLSFGDGVLSFYDASDADALVPLFAFHERLPRPVYPFFDVCWHDKGKNAQPLLLVGPEGAEA

binding [3]: binds
B3: TRIM72 (tripartite motif-containing protein 72), endogenous in L6 myotubes (protein, UniProt A0JPQ4 1-477)
chain: MSTAPGLLRQELSCPLCLQLFDAPVTAECGHSFCRACLIRVAGEPADDGTVACPCCQASTRPQALSTNLQLARLVEGLAQVPQGHCEEHLDPLSIYCEQDRTLVCGVCASLGSHRGHRLLPAAEAHARLKTQLPQQKAQLQEACMRKEKSVAVLEHQLVEVEETVRQFRGAVGEQLGKMRMFLAALESSLDREAERVRGEAGVALRRELSSLNSYLEQLRQMEKVLEEVADKPQTEFLMKFCLVTSRLQKILSESPPPARLDIQLPVISDDFKFQVWKKMFRALMPELEELTFDPSSAHPSLVVSASGRRVECSEQKAPPAGEDTCQFDKTVAVVAKQLLSQGEHYWEVEVGDKPRWALGVMAADASRRGRLHAVPSQGLWLLGLRDGKILEAHVEAKEPRALRTPERPPARIGLYLSFADGVLTFYDASNTDALTPLFSFHERLPGPVYPMFDVCWHDKGKNSQPLLLVGPDSEQA
